Data published in US10702607B2, “Abuse-deterrent pharmaceutical compositions” (priority 2016, dated 2020).

Experiments:
[1] = system: horseradish peroxidase and laccase (MtL), with glucose oxidase; assay: Inactivation of oxycodone with enzyme system peroxidase/laccase (oxygen measurement, HPLC-MS); format: biochemical, Myceliophthora thermophila (laccase)
[2] = system: laccase; assay: Laccase mediator system (LMS) with oxycodone: HPLC-MS/TOF measurement; settings: mediators 2 mM, vanillin also 6 mM

COc1ccc2c3c1O[C@H]1C(=O)CC[C@@]4(O)[C@@H](C2)N(C)CC[C@]314 [oxycodone, (5R,9R,13S,14S)-4,5α-epoxy-14-hydroxy-3-methoxy-17-methylmorphinan-6-one]
product of the enzymatic conversion of oxycodone ([1]; HPLC-MS measurement of reaction rate): converted to a product which precipitated | enzymatic conversion of oxycodone by HRP and laccase ([1]; HRP 10 U/ml, glucose oxidase 20 U/ml, laccase 25 U/ml, oxycodone 10 mg/ml, glucose 10 mg/ml, distilled water, room temperature, oxygen consumption and HPLC-MS): successfully converted | oxycodone concentration in the laccase mediator system [2]: decrease in oxycodone concentration was confirmed
